Reference: PubChem BioAssay AID743454 (Peter MacCallum Cancer Centre, 2014)

Screen: 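Knock-downs lowering viability or raising caspase 3/7 activity in vorinostat-treated resistant cells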 (primary screen)
Cells: human HCT116-VR colon cancer cells, selected for vorinostat resistance
Reagents: siRNA pool against human genes, 40 nM siRNA pool
Time to read-out: vorinostat for 24 h, read-out about 72 h after transfection
Conditions: vorinostat at 2.5 µM final
Measured: 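Two measures, CellTiter-Fluor viability and luminescent caspase 3/7 activity, each as fold change against same-plate mock wells, mean of duplicates, then screen-wide robust z-score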
Scale: viability robust z-score: higher = more viable cells than screen typical; caspase robust z-score: higher = more caspase 3/7 activity than screen typical
Hit rule: 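Hits are knock-downs in viability class RV1/RV2 or caspase class CA1/CA2, excluding ones that killed cells in the no-drug cell-count arm; hits then retested with single siRNAs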
This is an unselected part of about 18,000 reagents. Of all reagents, 450 (2.5%) got an active call. 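Single biological run; no consistent viability z cut-off exists, so the class columns, not z-scores, define the calls.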

The opening 2 records as a preview:
no.	gene knocked down	viability hit class	caspase hit class	viability robust z-score	caspase robust z-score	outcome
1	DIPK1B	no change	no change	-0.52	1.17	inactive
2	POLK	no change	no change	-1.46	-0.45	inactive

Main list, from the first entry:
no.	gene knocked down	viability hit class	caspase hit class	viability robust z-score	caspase robust z-score	outcome
1	DIPK1B	no change	no change	-0.52	1.17	inactive
2	POLK	no change	no change	-1.46	-0.45	inactive
3	PPP1R42	no change	no change	-0.62	-1.23	inactive
4	CELA3A	no change	no change	0.02	-0.18	inactive
5	HSPD1	no change	no change	1.63	-0.18	inactive
6	OR4F15	no change	no change	0.19	0.14	inactive
7	DHX40	no change	no change	-0.88	-0.91	inactive
8	ZFAT	no change	no change	1.07	0.31	inactive
9	UQCRH	no change	no change	0.47	-0.78	inactive
10	SMIM19	no change	no change	0.34	-0.55	inactive
11	CD8B	no change	no change	1.8	0.94	inactive
12	COL5A1	no change	no change	1.25	0.05	inactive
13	PDZD4	no change	no change	0.26	0.3	inactive
14	COPZ2	no change	no change	-2.91	-1.21	inactive
15	ARSD	no change	no change	1.12	-0.96	inactive
16	PNLIPRP2	no change	no change	0.94	2.4	inactive
17	RIMS2	no change	no change	1.06	-0.02	inactive
18	SERHL	no change	no change	1.43	-0.35	inactive
19	CCDC9	no change	no change	-1.11	1	inactive
20	EFCAB14	no change	no change	-3.3	1.44	inactive
21	OR52E4	no change	no change	-0.98	1.75	inactive
22	FAM171A1	no change	no change	0.77	-0.24	inactive
23	NT5C	no change	no change	0.18	0.34	inactive
24	TMEM95	no change	no change	-0.01	0.66	inactive
25	C20orf141	no change	no change	-0.24	-0.28	inactive
26	SNHG32	no change	no change	-0.61	0.96	inactive
27	MAP3K6	no change	no change	-0.44	-0.04	inactive
28	OR2K2	no change	no change	0.53	0.36	inactive
29	STX11	no change	no change	1.86	1.75	inactive
30	PLEKHN1	no change	no change	-0.99	0.48	inactive
31	FKBP1A	no change	no change	-2.02	0.46	inactive
32	EID2B	no change	no change	-0.2	2.84	inactive
33	GPAT2	no change	no change	1.38	1.08	inactive
34	ZCWPW1	no change	no change	-1.34	-0.35	inactive
35	KRTAP3-2	no change	no change	0.2	0.55	inactive
36	HACL1	no change	no change	-1.51	4.15	inactive
37	ZG16B	no change	no change	-2.38	-0.07	inactive
38	UBR3	no change	no change	-1.85	1.5	inactive
39	AFM	no change	no change	0.01	-0.38	inactive
40	ELP1	no change	no change	0.09	-0.41	inactive
41	MAGEA10	no change	no change	1.83	-0.52	inactive
42	LRRC2	no change	no change	-0.24	-0.37	inactive
43	BATF	no change	no change	0.3	-0.6	inactive
44	BIN1	no change	no change	-4.3	-0.42	inactive
45	TRIM49C	no change	no change	0.94	-0.52	inactive
46	LYZL6	no change	no change	0.06	-0.42	inactive
47	SLC22A3	no change	no change	-0.33	0.28	inactive
48	EML2	no change	no change	1.2	-0.8	inactive
49	XXYLT1	no change	no change	0.88	-0.61	inactive
50	DBI	no change	no change	-1.64	-0.52	inactive
51	SLC16A10	no change	no change	-1.74	4.21	inactive
52	SLC6A17	no change	no change	-0.15	-0.78	inactive
53	GLUD1	no change	no change	0.02	2.76	inactive
54	TOM1L2	no change	no change	0.64	1.03	inactive
55	FKBP5	no change	no change	0.22	-0.2	inactive
56	ARL4C	no change	no change	-1.07	4.5	inactive
57	REEP6	no change	no change	0.03	1.34	inactive
